Assay results: article doi:10.1101/2023.04.18.537143

Chains of the proteins cited; added tags and fusions are not shown. Residues count along the entry.
UniProt Q16602, residues 23-461: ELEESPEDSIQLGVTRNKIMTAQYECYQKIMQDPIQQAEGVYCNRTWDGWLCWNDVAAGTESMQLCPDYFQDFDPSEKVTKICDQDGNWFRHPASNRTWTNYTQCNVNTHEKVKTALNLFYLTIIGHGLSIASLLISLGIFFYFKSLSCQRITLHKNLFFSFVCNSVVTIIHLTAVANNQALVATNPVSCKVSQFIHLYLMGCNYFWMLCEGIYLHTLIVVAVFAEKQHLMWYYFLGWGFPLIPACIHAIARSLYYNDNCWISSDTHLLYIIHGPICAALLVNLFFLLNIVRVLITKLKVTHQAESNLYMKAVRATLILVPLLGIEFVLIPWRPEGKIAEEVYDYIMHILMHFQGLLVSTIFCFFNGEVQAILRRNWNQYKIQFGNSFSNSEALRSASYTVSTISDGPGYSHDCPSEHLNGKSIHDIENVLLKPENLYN
UniProt Q13555: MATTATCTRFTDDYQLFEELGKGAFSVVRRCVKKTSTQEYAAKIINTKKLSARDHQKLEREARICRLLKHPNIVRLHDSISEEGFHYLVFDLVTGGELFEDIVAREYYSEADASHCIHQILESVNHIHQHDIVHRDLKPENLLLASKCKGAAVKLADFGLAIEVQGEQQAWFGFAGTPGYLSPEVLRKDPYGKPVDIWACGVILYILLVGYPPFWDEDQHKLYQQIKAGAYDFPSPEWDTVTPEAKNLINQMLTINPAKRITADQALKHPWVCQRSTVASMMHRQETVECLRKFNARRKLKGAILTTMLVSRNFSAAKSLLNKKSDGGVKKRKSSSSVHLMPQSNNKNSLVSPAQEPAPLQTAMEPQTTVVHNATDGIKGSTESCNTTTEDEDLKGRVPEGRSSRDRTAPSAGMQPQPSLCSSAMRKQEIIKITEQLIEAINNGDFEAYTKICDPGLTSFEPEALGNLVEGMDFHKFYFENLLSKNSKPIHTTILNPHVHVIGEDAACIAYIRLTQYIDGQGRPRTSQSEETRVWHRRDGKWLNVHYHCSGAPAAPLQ
UniProt P27824, residues 21-592: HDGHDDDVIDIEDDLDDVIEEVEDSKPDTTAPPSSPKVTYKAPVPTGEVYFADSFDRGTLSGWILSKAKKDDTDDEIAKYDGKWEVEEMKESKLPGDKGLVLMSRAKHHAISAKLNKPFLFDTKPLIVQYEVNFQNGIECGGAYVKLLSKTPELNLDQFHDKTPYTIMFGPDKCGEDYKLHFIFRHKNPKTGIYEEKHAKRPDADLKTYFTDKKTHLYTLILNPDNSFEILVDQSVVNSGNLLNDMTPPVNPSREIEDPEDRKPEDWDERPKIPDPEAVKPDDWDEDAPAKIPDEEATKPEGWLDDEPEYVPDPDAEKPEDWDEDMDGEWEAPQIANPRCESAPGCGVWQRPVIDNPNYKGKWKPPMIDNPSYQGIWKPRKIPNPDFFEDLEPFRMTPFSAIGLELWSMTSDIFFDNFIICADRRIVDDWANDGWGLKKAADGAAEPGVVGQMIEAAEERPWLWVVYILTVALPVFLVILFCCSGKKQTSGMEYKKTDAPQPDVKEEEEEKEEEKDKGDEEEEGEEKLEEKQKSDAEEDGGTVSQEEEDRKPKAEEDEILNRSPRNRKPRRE
UniProt Q13200: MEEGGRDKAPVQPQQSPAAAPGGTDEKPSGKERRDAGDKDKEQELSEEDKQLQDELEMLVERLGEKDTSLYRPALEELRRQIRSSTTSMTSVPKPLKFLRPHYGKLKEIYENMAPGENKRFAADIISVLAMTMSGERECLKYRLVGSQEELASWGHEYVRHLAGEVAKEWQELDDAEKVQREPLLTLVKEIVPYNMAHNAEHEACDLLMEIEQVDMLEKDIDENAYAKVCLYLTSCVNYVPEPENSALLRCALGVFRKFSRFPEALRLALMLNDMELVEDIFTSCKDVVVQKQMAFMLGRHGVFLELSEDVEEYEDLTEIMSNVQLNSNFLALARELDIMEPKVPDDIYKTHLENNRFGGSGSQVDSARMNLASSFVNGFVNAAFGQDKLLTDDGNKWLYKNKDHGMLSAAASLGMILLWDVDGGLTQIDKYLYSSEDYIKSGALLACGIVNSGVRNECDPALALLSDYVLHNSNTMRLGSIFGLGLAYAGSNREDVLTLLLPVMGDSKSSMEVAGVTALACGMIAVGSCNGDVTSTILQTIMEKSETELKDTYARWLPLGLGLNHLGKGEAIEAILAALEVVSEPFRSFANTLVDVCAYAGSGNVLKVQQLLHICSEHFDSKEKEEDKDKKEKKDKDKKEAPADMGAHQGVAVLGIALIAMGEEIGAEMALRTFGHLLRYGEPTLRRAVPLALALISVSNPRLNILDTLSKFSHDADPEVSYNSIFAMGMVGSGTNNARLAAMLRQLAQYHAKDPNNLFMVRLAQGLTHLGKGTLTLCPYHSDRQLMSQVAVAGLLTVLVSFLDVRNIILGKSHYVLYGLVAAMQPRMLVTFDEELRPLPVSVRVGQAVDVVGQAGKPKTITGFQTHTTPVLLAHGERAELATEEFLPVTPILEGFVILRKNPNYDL
UniProt Q13557: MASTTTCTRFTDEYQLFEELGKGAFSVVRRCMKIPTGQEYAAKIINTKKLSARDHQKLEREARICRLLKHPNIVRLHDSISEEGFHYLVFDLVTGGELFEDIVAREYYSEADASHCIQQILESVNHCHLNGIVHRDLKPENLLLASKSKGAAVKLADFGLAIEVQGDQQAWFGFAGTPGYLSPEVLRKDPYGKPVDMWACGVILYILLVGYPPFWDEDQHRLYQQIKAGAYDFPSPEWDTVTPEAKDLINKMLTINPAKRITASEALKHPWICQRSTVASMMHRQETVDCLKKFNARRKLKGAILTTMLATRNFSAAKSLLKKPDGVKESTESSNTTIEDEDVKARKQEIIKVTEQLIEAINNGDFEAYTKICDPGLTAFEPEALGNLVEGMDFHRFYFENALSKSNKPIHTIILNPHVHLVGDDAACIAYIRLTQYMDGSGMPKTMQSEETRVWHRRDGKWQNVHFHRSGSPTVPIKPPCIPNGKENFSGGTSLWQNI
UniProt P51784: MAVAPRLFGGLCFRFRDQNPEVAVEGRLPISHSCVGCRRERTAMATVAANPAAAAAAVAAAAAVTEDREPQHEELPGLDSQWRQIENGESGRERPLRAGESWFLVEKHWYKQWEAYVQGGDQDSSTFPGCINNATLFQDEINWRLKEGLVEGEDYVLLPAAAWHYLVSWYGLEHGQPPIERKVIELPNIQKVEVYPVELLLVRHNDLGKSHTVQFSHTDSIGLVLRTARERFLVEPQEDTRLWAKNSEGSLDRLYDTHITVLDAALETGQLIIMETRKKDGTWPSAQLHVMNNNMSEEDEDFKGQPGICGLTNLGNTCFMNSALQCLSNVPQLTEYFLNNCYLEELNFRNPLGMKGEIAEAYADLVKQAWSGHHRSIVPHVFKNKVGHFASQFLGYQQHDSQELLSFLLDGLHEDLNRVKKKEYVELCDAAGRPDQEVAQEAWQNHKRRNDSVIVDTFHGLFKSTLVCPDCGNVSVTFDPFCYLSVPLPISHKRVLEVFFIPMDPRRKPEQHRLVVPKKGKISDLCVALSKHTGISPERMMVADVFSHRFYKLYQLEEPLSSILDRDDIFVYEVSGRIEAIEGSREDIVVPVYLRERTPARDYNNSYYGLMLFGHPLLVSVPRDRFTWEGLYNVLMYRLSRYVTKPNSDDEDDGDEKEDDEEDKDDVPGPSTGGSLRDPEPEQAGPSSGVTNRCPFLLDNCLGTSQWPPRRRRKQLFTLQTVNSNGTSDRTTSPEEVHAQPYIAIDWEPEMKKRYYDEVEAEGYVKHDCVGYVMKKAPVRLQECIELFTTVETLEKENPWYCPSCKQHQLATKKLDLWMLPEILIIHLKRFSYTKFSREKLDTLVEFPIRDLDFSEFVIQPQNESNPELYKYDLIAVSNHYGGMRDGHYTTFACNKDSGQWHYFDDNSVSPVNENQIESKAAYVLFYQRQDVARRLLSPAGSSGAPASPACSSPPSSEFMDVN
UniProt Q9Y5S2: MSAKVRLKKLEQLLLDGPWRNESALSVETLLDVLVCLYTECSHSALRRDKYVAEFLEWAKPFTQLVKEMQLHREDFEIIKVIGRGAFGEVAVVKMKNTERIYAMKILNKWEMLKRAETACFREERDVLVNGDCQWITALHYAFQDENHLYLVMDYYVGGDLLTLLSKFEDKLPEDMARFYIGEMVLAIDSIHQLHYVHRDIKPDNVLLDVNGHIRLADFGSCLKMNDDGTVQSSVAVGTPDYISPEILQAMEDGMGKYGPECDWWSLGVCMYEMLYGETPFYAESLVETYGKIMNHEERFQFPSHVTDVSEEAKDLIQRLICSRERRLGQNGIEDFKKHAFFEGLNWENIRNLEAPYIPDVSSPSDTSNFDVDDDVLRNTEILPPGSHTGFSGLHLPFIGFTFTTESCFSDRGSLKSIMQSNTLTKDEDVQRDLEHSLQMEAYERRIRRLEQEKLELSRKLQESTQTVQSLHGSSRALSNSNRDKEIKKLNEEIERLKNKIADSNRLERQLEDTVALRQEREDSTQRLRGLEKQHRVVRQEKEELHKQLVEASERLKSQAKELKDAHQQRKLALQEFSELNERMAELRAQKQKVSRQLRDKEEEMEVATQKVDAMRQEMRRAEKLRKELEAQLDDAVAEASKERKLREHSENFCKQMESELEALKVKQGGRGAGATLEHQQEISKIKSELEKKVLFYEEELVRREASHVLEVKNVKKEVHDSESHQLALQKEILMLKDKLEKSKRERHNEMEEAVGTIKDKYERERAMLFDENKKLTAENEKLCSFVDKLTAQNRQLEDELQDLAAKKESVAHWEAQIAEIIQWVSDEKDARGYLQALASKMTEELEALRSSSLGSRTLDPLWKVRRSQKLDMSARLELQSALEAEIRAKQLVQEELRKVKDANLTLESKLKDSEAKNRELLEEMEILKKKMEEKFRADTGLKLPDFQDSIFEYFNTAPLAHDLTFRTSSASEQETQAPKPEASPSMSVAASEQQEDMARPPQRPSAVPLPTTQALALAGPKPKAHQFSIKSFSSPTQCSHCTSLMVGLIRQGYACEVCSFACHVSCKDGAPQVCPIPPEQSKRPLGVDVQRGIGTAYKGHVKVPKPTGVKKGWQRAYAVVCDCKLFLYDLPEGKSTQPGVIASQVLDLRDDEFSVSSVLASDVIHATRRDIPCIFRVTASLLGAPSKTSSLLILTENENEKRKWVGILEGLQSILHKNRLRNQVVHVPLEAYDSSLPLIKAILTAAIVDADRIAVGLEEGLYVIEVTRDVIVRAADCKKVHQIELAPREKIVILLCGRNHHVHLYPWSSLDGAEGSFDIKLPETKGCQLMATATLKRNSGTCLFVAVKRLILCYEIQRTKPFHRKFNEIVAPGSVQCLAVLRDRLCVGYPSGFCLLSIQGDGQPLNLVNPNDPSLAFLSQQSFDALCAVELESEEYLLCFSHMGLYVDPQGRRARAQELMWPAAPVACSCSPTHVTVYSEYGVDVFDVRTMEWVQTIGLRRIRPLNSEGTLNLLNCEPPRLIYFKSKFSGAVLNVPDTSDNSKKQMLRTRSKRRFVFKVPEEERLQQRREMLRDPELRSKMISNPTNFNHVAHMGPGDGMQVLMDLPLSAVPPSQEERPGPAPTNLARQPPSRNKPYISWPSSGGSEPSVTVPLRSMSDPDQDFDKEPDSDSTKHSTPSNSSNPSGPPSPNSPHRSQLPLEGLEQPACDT
UniProt P49407: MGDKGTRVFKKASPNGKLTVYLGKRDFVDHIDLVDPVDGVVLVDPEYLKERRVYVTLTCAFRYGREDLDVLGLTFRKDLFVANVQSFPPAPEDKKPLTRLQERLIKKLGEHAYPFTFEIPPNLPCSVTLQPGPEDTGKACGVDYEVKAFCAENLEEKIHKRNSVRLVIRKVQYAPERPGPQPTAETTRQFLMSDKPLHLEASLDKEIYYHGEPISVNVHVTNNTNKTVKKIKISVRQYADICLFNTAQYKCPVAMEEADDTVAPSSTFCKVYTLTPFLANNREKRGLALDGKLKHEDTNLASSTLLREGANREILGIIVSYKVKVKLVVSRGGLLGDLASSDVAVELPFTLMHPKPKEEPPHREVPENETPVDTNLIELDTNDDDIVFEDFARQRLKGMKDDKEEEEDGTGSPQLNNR

B1: FILIP1L (protein, UniProt Q4L180 1-1135)
chain: MRSRGSDTEGSAQKKFPRHTKGHSFQGPKNMKHRQQDKDSPSESDVILPCPKAEKPHSGNGHQAEDLSRDDLLFLLSILEGELQARDEVIGILKAEKMDLALLEAQYGFVTPKKVLEALQRDAFQAKSTPWQEDIYEKPMNELDKVVEKHKESYRRILGQLLVAEKSRRQTILELEEEKRKHKEYMEKSDEFICLLEQECERLKKLIDQEIKSQEEKEQEKEKRVTTLKEELTKLKSFALMVVDEQQRLTAQLTLQRQKIQELTTNAKETHTKLALAEARVQEEEQKATRLEKELQTQTTKFHQDQDTIMAKLTNEDSQNRQLQQKLAALSRQIDELEETNRSLRKAEEELQDIKEKISKGEYGNAGIMAEVEELRKRVLDMEGKDEELIKMEEQCRDLNKRLERETLQSKDFKLEVEKLSKRIMALEKLEDAFNKSKQECYSLKCNLEKERMTTKQLSQELESLKVRIKELEAIESRLEKTEFTLKEDLTKLKTLTVMFVDERKTMSEKLKKTEDKLQAASSQLQVEQNKVTTVTEKLIEETKRALKSKTDVEEKMYSVTKERDDLKNKLKAEEEKGNDLLSRVNMLKNRLQSLEAIEKDFLKNKLNQDSGKSTTALHQENNKIKELSQEVERLKLKLKDMKAIEDDLMKTEDEYETLERRYANERDKAQFLSKELEHVKMELAKYKLAEKTETSHEQWLFKRLQEEEAKSGHLSREVDALKEKIHEYMATEDLICHLQGDHSVLQKKLNQQENRNRDLGREIENLTKELERYRHFSKSLRPSLNGRRISDPQVFSKEVQTEAVDNEPPDYKSLIPLERAVINGQLYEESENQDEDPNDEGSVLSFKCSQSTPCPVNRKLWIPWMKSKEGHLQNGKMQTKPNANFVQPGDLVLSHTPGQPLHIKVTPDHVQNTATLEITSPTTESPHSYTSTAVIPNCGTPKQRITILQNASITPVKSKTSTEDLMNLEQGMSPITMATFARAQTPESCGSLTPERTMSPIQVLAVTGSASSPEQGRSPEPTEISAKHAIFRVSPDRQSSWQFQRSNSNSSSVITTEDNKIHIHLGSPYMQAVASPVRPASPSAPLQDNRTQGLINGALNKTTNKVTSSITITPTATPLPRQSQITVEPLLLPH
B2: RASIP1 (protein, UniProt Q5U651 1-963)
chain: MLSGERKEGGSPRFGKLHLPVGLWINSPRKQLAKLGRRWPSAASVKSSSSDTGSRSSEPLPPPPPHVELRRVGAVKAAGGASGSRAKRISQLFRGSGTGTTGSSGAGGPGTPGGAQRWASEKKLPELAAGVAPEPPLATRATAPPGVLKIFGAGLASGANYKSVLATARSTARELVAEALERYGLAGSPGGGPGESSCVDAFALCDALGRPAAAGVGSGEWRAEHLRVLGDSERPLLVQELWRARPGWARRFELRGREEARRLEQEAFGAADSEGTGAPSWRPQKNRSRAASGGAALASPGPGTGSGAPAGSGGKERSENLSLRRSVSELSLQGRRRRQQERRQQALSMAPGAADAQIGTADPGDFDQLTQCLIQAPSNRPYFLLLQGYQDAQDFVVYVMTREQHVFGRGGNSSGRGGSPAPYVDTFLNAPDILPRHCTVRAGPEHPAMVRPSRGAPVTHNGCLLLREAELHPGDLLGLGEHFLFMYKDPRTGGSGPARPPWLPARPGATPPGPGWAFSCRLCGRGLQERGEALAAYLDGREPVLRFRPREEEALLGEIVRAAAAGSGDLPPLGPATLLALCVQHSARELELGHLPRLLGRLARLIKEAVWEKIKEIGDRQPENHPEGVPEVPLTPEAVSVELRPLMLWMANTTELLSFVQEKVLEMEKEADQEDPQLCNDLELCDEAMALLDEVIMCTFQQSVYYLTKTLYSTLPALLDSNPFTAGAELPGPGAELGAMPPGLRPTLGVFQAALELTSQCELHPDLVSQTFGYLFFFSNASLLNSLMERGQGRPFYQWSRAVQIRTNLDLVLDWLQGAGLGDIATEFFRKLSMAVNLLCVPRTSLLKASWSSLRTDHPTLTPAQLHHLLSHYQLGPGRGPPAAWDPPPAEREAVDTGDIFESFSSHPPLILPLGSSRLRLTGPVTDDALHRELRRLRRLLWDLEQQELPANYRHGPPVATSP
B3: GYG1 (enzyme, UniProt P46976 1-350)
chain: MTDQAFVTLTTNDAYAKGALVLGSSLKQHRTTRRLVVLATPQVSDSMRKVLETVFDEVIMVDVLDSGDSAHLTLMKRPELGVTLTKLHCWSLTQYSKCVFMDADTLVLANIDDLFDREELSAAPDPGWPDCFNSGVFVYQPSVETYNQLLHLASEQGSFDGGDQGILNTFFSSWATTDIRKHLPFIYNLSSISIYSYLPAFKVFGASAKVVHFLGRVKPWNYTYDPKTKSVKSEAHDPNMTHPEFLILWWNIFTTNVLPLLQQFGLVKDTCSYVNVLSDLVYTLAFSCGFCRKEDVSGAISHLSLGEIPAMAQPFVSSEERKERWEQGQADYMGADSFDNIKRKLDTYLQ
B4: PANK4 (protein, UniProt Q9NVE7 1-773)
chain: MAECGASGSGSSGDSLDKSITLPPDEIFRNLENAKRFAIDIGGSLTKLAYYSTVQHKVAKVRSFDHSGKDTEREHEPPYEISVQEEITARLHFIKFENTYIEACLDFIKDHLVNTETKVIQATGGGAYKFKDLIEEKLRLKVDKEDVMTCLIKGCNFVLKNIPHEAFVYQKDSDPEFRFQTNHPHIFPYLLVNIGSGVSIVKVETEDRFEWVGGSSIGGGTFWGLGALLTKTKKFDELLHLASRGQHSNVDMLVRDVYGGAHQTLGLSGNLIASSFGKSATADQEFSKEDMAKSLLHMISNDIGQLACLHARLHSLDRVYFGGFFIRGHPVTMRTITYSINFFSKGEVQALFLRHEGYLGAIGAFLKGAEQDNPNQYSWGENYAGSSGLMSASPELGPAQRARSGTFDLLEMDRLERPLVDLPLLLDPPSYVPDTVDLTDDALARKYWLTCFEEALDGVVKRAVASQPDSVDAAERAEKFRQKYWNKLQTLRQQPFAYGTLTVRSLLDTREHCLNEFNFPDPYSKVKQRENGVALRCFPGVVRSLDALGWEERQLALVKGLLAGNVFDWGAKAVSAVLESDPYFGFEEAKRKLQERPWLVDSYSEWLQRLKGPPHKCALIFADNSGIDIILGVFPFVRELLLRGTEVILACNSGPALNDVTHSESLIVAERIAGMDPVVHSALQEERLLLVQTGSSSPCLDLSRLDKGLAALVRERGADLVVIEGMGRAVHTNYHAALRCESLKLAVIKNAWLAERLGGRLFSVIFKYEVPAE
B5: protein ERGIC-53 (protein, UniProt P49257 31-510)
chain: DGVGGDPAVALPHRRFEYKYSFKGPHLVQSDGTVPFWAHAGNAIPSSDQIRVAPSLKSQRGSVWTKTKAAFENWEVEVTFRVTGRGRIGADGLAIWYAENQGLEGPVFGSADLWNGVGIFFDSFDNDGKKNNPAIVIIGNNGQIHYDHQNDGASQALASCQRDFRNKPYPVRAKITYYQNTLTVMINNGFTPDKNDYEFCAKVENMIIPAQGHFGISAATGGLADDHDVLSFLTFQLTEPGKEPPTPDKEISEKEKEKYQEEFEHFQQELDKKKEEFQKGHPDLQGQPAEEIFESVGDRELRQVFEGQNRIHLEIKQLNRQLDMILDEQRRYVSSLTEEISKRGAGMPGQHGQITQQELDTVVKTQHEILRQVNEMKNSMSETVRLVSGMQHPGSAGGVYETTQHFIDIKEHLHIVKRDIDNLVQRNMPSNEKPKCPELPPFPSCLSTVHFIIFVVVQTVLFIGYIMYRSQQEAAAKKFF
B6: aconitase 1 (enzyme, UniProt P21399 1-889)
chain: MSNPFAHLAEPLDPVQPGKKFFNLNKLEDSRYGRLPFSIRVLLEAAIRNCDEFLVKKQDIENILHWNVTQHKNIEVPFKPARVILQDFTGVPAVVDFAAMRDAVKKLGGDPEKINPVCPADLVIDHSIQVDFNRRADSLQKNQDLEFERNRERFEFLKWGSQAFHNMRIIPPGSGIIHQVNLEYLARVVFDQDGYYYPDSLVGTDSHTTMIDGLGILGWGVGGIEAEAVMLGQPISMVLPQVIGYRLMGKPHPLVTSTDIVLTITKHLRQVGVVGKFVEFFGPGVAQLSIADRATIANMCPEYGATAAFFPVDEVSITYLVQTGRDEEKLKYIKKYLQAVGMFRDFNDPSQDPDFTQVVELDLKTVVPCCSGPKRPQDKVAVSDMKKDFESCLGAKQGFKGFQVAPEHHNDHKTFIYDNTEFTLAHGSVVIAAITSCTNTSNPSVMLGAGLLAKKAVDAGLNVMPYIKTSLSPGSGVVTYYLQESGVMPYLSQLGFDVVGYGCMTCIGNSGPLPEPVVEAITQGDLVAVGVLSGNRNFEGRVHPNTRANYLASPPLVIAYAIAGTIRIDFEKEPLGVNAKGQQVFLKDIWPTRDEIQAVERQYVIPGMFKEVYQKIETVNESWNALATPSDKLFFWNSKSTYIKSPPFFENLTLDLQPPKSIVDAYVLLNLGDSVTTDHISPAGNIARNSPAARYLTNRGLTPREFNSYGSRRGNDAVMARGTFANIRLLNRFLNKQAPQTIHLPSGEILDVFDAAERYQQAGLPLIVLAGKEYGAGSSRDWAAKGPFLLGIKAVLAESYERIHRSNLVGMGVIPLEYLPGENADALGLTGQERYTIIIPENLKPQMKVQVKLDTGKTFQAVMRFDTDVELTYFLNGGILNYMIRKMAK

Molecular target: calcitonin receptor-like receptor (human (endogenous in HDLEC)) (UniProt Q16602)
Assay: affinity purification with mass spectrometry

With “CAMK2G (from UniProt Q13555 1-558) (enzyme)” as the molecule, how does the binding read?
The binding was “binds”.

With CANX (from UniProt P27824 21-592) as the molecule, how does the binding read?
Its binding is “binds”.

PSMD2 (from UniProt Q13200 1-908) was tested. Which binding did it give?
The binding was “binds”.

With “calcium/calmodulin dependent protein kinase II delta (from UniProt Q13557 1-499) (enzyme)” as the molecule, how does the binding read?
Its binding is “binds”.

“deubiquitinase USP11 (from UniProt P51784 1-963) (enzyme)” was tested. Which binding did it give?
Its binding is “binds”.

“serine/threonine-protein kinase MRCK beta (from UniProt Q9Y5S2 1-1711) (enzyme)” was tested. Which binding did it give?
The binding was “binds”.

“valosin containing protein (from UniProt P55072 1-806) (enzyme)” was tested. Which binding did it give?
Its binding is “binds”.

Which binding does the source give for “β-arrestin 1 (from UniProt P49407 1-418)” here?
The binding was “no binding”.

Molecular target: calcitonin receptor-like receptor (human (endogenous in HDLEC)) (UniProt Q16602)
Assay: affinity purification with mass spectrometry
Remark: another data set of the same source

B1 was tested. Which binding did it give?
Its binding is “binds”.

For B2, which binding is on record?
Its binding is “binds”.

How did the binding turn out when B3 was run?
Its binding is “binds”.

With B4 as the molecule, how does the binding read?
Its binding is “binds”.

For B5, which binding is on record?
The binding was “binds”.

How did the binding turn out when B6 was run?
The binding was “binds”.

No constants are given. Whether binding was seen depends on the method and setting. Binding seen in cells or lysates may run through a third protein. A yes stands for co-enrichment or nearness to the bait. Other partners may have been found. For some assays here: No binding means not detected with the bait.
